Laboratory results published in doi:10.1101/2022.02.24.481761.
These are yes or no findings as the source states them, for the method shown. Some entries that bind do so weakly or less than the wild type.

Chains of the proteins cited; added tags and fusions are not shown. Residues count along the entry.
UniProt P21802, residues 22-377: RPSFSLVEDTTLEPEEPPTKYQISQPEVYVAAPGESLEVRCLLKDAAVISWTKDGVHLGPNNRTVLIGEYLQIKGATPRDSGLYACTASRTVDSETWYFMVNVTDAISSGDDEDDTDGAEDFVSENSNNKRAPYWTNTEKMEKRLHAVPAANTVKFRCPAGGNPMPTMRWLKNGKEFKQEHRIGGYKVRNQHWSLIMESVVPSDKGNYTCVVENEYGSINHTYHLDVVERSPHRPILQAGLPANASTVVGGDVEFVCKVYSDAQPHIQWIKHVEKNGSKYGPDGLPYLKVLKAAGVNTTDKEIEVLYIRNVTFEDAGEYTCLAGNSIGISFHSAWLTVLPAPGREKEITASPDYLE

Target: T1, aminoacyl-tRNA synthetase-interacting multifunctional protein1 (AIMP1), recombinant protein (UniProt Q12904)
T1 sequence: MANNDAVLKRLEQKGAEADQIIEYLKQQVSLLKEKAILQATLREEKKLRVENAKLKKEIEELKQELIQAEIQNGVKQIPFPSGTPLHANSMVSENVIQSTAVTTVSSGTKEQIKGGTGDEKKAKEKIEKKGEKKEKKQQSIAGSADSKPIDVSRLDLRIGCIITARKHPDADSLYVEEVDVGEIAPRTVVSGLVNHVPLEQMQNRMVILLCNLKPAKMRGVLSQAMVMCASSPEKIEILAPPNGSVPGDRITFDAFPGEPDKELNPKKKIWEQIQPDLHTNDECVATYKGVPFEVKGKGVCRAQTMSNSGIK
Assay: ELISA

binding: binds
Substance: FGFR2-flag recombinant protein (from UniProt P21802 22-377) (receptor)
